log2 fold change data for 36 targets are collected here from the supplement of paper PMC10849652.

The chains behind the UniProt entries cited, without tags or fusion partners. Where a name states a change or a piece, a line headed by the entry shows the natural chain unless it says otherwise.
UniProt Q8N6L1: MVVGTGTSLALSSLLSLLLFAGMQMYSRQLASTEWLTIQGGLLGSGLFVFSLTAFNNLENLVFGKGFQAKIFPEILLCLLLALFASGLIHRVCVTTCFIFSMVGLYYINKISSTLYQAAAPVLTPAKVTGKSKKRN
UniProt Q14145, whole entry, looked up: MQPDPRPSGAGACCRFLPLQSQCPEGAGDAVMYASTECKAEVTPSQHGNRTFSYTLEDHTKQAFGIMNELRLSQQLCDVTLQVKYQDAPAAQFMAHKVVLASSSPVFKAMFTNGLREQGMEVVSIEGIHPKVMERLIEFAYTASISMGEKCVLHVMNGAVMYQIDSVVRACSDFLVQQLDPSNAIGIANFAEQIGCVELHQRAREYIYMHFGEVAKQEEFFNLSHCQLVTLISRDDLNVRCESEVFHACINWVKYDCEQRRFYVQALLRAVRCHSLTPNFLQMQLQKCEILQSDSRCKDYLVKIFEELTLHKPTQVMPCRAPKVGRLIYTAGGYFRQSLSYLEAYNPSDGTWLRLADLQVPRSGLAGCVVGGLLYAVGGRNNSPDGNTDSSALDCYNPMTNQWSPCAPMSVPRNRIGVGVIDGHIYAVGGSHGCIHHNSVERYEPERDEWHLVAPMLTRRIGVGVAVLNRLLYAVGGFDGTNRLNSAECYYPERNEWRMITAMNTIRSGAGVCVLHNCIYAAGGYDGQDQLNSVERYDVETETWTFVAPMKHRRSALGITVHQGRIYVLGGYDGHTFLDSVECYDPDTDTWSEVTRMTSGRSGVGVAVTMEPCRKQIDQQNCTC
UniProt Q96AT1: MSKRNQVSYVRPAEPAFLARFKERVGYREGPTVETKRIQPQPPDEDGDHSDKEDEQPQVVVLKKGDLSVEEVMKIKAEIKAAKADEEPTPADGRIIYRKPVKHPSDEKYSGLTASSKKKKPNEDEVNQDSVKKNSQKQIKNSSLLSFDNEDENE
UniProt Q8IYS2: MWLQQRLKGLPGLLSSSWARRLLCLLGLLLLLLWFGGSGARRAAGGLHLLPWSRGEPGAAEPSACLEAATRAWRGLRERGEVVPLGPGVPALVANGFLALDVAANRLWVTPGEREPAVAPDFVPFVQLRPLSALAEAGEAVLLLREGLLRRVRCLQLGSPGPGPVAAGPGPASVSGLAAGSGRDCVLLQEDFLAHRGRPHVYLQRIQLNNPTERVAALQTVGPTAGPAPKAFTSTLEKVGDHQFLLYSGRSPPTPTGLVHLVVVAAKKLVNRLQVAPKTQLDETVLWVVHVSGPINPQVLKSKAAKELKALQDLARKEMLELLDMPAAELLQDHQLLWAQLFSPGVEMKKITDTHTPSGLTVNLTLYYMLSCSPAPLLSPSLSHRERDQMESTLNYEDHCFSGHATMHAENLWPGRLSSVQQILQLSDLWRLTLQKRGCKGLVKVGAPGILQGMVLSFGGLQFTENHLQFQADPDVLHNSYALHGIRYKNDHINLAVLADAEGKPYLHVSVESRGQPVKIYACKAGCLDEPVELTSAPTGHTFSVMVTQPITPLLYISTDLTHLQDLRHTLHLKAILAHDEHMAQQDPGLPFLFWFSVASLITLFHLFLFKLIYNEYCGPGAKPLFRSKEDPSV
UniProt Q9ULI4: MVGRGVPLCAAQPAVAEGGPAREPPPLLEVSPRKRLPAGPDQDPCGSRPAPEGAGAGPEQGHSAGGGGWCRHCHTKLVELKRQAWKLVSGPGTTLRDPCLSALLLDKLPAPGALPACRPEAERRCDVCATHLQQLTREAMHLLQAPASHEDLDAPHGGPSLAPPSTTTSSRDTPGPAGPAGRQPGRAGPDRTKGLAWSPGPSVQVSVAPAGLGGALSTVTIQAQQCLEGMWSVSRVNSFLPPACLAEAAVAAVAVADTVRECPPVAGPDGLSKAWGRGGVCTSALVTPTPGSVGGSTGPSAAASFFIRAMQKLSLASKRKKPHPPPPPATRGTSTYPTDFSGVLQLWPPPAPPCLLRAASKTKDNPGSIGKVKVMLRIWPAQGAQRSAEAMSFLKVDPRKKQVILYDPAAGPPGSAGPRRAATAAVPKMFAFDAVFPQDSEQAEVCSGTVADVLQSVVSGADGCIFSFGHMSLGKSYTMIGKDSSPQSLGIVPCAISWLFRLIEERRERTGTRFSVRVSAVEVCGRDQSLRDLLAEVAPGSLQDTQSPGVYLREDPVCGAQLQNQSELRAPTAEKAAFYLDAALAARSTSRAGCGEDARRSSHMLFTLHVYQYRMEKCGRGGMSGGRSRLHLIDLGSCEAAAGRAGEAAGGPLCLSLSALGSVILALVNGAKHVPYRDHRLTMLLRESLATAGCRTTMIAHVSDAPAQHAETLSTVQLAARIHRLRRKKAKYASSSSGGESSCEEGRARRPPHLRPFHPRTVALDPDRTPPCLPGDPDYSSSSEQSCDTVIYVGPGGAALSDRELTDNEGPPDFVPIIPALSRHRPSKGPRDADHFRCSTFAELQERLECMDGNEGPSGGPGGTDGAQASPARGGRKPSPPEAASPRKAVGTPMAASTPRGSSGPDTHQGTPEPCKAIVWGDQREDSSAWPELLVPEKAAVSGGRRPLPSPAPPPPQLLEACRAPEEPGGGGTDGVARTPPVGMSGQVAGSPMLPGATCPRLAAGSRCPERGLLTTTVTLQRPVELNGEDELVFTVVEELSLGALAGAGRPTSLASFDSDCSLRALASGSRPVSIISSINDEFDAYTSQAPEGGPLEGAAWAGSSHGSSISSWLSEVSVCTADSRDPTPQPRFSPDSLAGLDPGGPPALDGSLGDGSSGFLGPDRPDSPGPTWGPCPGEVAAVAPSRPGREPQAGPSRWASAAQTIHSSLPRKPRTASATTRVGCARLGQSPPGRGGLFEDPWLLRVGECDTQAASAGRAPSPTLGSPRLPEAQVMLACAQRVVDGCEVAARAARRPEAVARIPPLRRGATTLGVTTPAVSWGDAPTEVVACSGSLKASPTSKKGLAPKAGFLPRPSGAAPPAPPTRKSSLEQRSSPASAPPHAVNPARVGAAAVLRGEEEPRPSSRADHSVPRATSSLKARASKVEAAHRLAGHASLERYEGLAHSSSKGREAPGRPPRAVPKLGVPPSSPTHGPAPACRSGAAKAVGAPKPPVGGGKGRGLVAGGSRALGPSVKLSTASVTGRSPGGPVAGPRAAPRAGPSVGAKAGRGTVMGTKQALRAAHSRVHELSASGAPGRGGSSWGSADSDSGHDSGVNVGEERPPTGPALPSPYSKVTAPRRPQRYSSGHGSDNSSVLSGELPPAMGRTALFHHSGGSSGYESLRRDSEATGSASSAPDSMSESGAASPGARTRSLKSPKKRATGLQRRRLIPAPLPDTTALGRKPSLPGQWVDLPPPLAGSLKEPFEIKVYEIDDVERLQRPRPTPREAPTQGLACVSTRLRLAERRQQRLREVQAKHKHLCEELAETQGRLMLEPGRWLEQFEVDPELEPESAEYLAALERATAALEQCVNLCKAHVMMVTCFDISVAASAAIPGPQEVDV
UniProt Q8N5M9: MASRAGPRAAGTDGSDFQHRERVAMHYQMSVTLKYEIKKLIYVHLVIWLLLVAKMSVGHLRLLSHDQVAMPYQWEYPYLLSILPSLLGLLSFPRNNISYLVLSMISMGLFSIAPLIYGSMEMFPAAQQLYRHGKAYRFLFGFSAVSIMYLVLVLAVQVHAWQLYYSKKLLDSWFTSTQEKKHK
UniProt P01591, whole entry, looked up: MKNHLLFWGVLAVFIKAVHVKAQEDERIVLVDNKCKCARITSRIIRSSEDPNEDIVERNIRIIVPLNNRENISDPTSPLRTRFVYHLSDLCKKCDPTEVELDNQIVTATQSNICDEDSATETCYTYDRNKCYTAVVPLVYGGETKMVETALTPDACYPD
UniProt Q92845: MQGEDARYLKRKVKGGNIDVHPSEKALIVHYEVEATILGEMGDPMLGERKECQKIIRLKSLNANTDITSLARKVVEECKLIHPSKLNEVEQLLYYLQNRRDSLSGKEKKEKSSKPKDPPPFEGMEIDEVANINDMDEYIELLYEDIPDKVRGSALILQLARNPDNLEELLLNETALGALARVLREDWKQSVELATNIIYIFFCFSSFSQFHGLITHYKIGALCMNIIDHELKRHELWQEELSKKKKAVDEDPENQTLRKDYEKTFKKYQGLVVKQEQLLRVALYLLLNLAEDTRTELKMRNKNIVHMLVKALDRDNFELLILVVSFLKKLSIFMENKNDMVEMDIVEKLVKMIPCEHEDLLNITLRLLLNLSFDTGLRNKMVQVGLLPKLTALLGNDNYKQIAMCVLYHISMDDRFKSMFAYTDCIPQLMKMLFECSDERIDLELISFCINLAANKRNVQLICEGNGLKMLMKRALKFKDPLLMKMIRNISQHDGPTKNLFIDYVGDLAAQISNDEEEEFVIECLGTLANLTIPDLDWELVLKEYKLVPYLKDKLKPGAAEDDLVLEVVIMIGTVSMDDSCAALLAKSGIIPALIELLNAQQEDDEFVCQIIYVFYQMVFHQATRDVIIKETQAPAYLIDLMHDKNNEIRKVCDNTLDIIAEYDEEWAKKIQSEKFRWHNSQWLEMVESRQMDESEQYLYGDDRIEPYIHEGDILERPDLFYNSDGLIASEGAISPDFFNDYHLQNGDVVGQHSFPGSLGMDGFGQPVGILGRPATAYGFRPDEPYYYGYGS
UniProt Q13303: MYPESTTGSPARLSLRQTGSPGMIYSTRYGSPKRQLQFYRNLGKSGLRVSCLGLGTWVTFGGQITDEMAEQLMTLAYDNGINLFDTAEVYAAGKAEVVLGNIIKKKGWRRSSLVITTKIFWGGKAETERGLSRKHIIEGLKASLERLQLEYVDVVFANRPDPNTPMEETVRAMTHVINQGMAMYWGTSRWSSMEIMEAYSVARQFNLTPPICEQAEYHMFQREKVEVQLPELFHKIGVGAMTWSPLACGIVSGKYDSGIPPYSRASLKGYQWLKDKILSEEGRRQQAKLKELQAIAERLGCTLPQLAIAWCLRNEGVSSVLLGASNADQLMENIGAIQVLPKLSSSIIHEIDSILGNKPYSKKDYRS
UniProt Q96A73: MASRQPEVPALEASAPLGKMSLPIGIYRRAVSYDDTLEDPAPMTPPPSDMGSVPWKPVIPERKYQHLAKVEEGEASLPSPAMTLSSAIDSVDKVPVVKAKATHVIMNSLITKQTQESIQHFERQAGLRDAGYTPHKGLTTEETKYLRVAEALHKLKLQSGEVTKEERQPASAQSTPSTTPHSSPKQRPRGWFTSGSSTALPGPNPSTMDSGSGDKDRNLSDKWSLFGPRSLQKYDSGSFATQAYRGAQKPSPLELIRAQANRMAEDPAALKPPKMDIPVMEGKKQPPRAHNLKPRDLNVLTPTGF
UniProt Q96MP8: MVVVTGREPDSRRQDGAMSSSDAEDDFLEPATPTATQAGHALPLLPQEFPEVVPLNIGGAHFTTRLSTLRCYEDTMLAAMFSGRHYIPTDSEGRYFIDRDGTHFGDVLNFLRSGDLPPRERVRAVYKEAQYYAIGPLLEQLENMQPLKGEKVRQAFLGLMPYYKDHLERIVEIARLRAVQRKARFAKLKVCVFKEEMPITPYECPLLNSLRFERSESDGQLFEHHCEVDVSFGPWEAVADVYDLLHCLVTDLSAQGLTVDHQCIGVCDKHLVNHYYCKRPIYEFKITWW
UniProt Q9H9V9: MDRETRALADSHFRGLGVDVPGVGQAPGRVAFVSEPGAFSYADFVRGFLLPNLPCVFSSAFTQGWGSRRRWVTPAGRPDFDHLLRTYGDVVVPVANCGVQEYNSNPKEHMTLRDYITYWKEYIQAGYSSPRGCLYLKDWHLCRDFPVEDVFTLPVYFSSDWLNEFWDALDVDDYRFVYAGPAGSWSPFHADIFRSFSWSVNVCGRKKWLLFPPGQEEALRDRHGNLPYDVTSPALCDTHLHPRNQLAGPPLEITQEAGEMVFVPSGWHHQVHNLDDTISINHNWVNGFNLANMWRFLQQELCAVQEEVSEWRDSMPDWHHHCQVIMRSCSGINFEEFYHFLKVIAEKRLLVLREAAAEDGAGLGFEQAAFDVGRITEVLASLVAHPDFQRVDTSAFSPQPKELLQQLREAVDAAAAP
UniProt Q9P0J7: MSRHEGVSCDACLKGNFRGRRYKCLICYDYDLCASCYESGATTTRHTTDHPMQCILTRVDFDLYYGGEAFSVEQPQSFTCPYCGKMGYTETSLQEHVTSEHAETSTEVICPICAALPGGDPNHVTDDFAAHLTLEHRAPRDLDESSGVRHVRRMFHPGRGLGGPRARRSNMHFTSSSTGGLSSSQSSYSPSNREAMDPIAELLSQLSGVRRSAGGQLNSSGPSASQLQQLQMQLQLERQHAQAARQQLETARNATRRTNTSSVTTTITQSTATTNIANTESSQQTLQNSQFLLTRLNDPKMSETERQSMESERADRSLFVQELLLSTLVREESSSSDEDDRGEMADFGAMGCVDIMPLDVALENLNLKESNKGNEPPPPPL
UniProt A6NCN2: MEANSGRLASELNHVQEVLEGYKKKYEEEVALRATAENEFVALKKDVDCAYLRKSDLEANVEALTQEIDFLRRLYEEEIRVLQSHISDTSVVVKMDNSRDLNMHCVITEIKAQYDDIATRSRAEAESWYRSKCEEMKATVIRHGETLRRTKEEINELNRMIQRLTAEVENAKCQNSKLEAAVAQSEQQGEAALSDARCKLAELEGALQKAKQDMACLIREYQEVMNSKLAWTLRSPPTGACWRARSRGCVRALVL

The list shows a part of the results.

Compound in this test: C1=CC=C(C=C1)[C@H](COC2=CC3=C(C=C2)NC(=O)N3)NC(=O)C4=CC=CN(C4=O)CC5=CC(=C(C=C5)F)F
Description: log2 fold change, soluble protein after heating vs DMSO (PISA); higher = thermal stabilisation; K562 cells, 10 uM, 30 min; active = over 0.2 and 3.5 SD of the protein, either way, in both replicates (recomputed). Put shortly: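 Quantification of soluble protein used TMTpro 16plex LC-MS/MS, with channel sums equalised. Samples were the supernatant after 21,000xg for 90 min of pooled aliquots from K562 cells (2×10^6 cells/mL) treated with 10 μM compound for 30 min, heated for 3 min over 48°C-58°C, and extracted in PBS with 0.5% NP-40 at 4°C. Values, from duplicates, describe thermal stability against control samples on a log2 fold-change scale.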
On to KIF1B isoform 4 (UniProt O60333), for which the log2 fold change is inactive: -0.035.
To KATNA1 (UniProt O75449) belongs inactive: -0.001.
On to KRTCAP2 isoform 2 (UniProt Q8N6L1), for which the log2 fold change is inactive: 0.008.
With KEAP1 (UniProt Q14145), the log2 fold change is inactive: 0.015.
To KDM1A isoform 2 (UniProt O60341) belongs inactive: -0.05.
To KIF5A (UniProt Q12840) belongs inactive: -0.024.
To KIF23 (UniProt Q02241) belongs inactive: -0.027; to KPNB1 (UniProt Q14974), inactive: -0.035.
With JMJD7 (UniProt P0C870), the log2 fold change is inactive: 0.133.
For KIAA1143 (UniProt Q96AT1) the value was inactive: 0.074; for KIAA1755 (UniProt Q5JYT7), inactive: 0.007; for JPT1 (UniProt Q9UK76), inactive: -0.009.
For ITPRIP (UniProt Q8IWB1) the value was inactive: -0.024.
For KLHDC3 (UniProt Q9BQ90) the value was inactive: 0.063; for KIAA2013 isoform 2 (UniProt Q8IYS2), inactive: 0.025; for KNSTRN (UniProt Q9Y448), inactive: 0.013.
Consider KIF26A (UniProt Q9ULI4), for which the log2 fold change was inactive: 0.077.
For JAGN1 (UniProt Q8N5M9) the value was inactive: 0.031; for JCHAIN (UniProt P01591), inactive: -0.009.
With KIFAP3 (UniProt Q92845), the log2 fold change was inactive: 0.129.
With KCNAB2 (UniProt Q13303), the log2 fold change was inactive: -0.055.
To KATNAL1 (UniProt Q9BW62) belongs inactive: 0.113; to KATNB1 (UniProt Q9BVA0), inactive: -0.039; to KIFBP (UniProt Q96EK5), inactive: -0.075.
For KIF5B (UniProt P33176) the value was inactive: -0.039; for KIAA1191 (UniProt Q96A73), inactive: -0.024; for KNTC1 (UniProt P50748), inactive: -0.079.
For KDM3B (UniProt Q7LBC6) the value was inactive: -0.013; for KCTD7 (UniProt Q96MP8), inactive: 0.057.
For KPTN (UniProt Q9Y664), the log2 fold change was inactive: -0.021.
For JMJD4 (UniProt Q9H9V9) the value was inactive: 0.26; for KDM2B (UniProt Q8NHM5), inactive: -0.174.
For KCMF1 (UniProt Q9P0J7) the value was inactive: -0.024; for KRT87P (UniProt A6NCN2), inactive: 0.037.
For KIF15 (UniProt Q9NS87) the value was inactive: 0.155; for KARS1 (UniProt Q15046), inactive: 0.043.
